From PubChem BioAssay AID624156 (Broad Institute, 2012)
The whole screen tested about 46,000 compounds, of which about 900 (2%) were called active. The inconclusive results got no clear call from the source; some entries with a clear call stand among them for comparison. Cut-off read from the data, not from the text of the source: active = ROS induction above about 79% (passing the limit was not always enough); inconclusive = no clear call, values can overlap the other calls.

Experiment: ROS inducers in U2OS cancer cells, primary screen, cell-based, H2DCF-DA fluorescence (AID 624156);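 note: 0% = DMSO vehicle median and 100% = reference compound median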
Conditions: at 10 µM, stronger effect = higher value

Row | Compound | ROS induction (% of piperlongumine)
1 | C[C@H]1CN([C@@H](C)CO)C(=O)CCCn2cc(nn2)CO[C@@H]1CN(C)C(=O)Oc1ccc2ccccc2c1 | active: 134%
2 | NNCc1cccc(O)c1 | inactive: 0.015%
3 | O=C(CCCN1CCC2(CC1)C(=O)NCN2c1ccccc1)c1ccc(F)cc1 | active: 98.1%
4 | C[C@H]1O[C@@H](O[C@H]2[C@@H](O)C[C@H](O[C@H]3[C@@H](O)C[C@H](O[C@H]4CC[C@@]5(C)[C@H](CC[C@@H]6[C@@H]5CC[C@]5(C)[C@@H](C7=CC(=O)OC7)CC[C@]65O)C4)O[C@@H]3C)O[C@@H]2C)C[C@H](O)[C@@H]1O | active: 114%
6 | CCN1CC2(COC)CCC(O)C34C5CC6C(OC)CC(O)(C5C6O)C(C(OC)C23)C14 (stereo not drawn) | inconclusive: 126%
7 | CCOC(=O)C1=C(CN2CC=C(c3ccccc3)CC2)NC(=O)NC1c1ccc(OC)cc1 (stereo not drawn) | inactive: -0.694%
8 | CN(C(=O)c1ccc(Cl)cc1)c1ccc(Cl)cc1C(=O)c1ccccc1 | inactive: -0.452%
9 | C/C=C(\C)[C@H](O)[C@H](C)/C=C(C)/C=C/C/C(C)=C/Cc1[nH]c(OC)c(OC)c(=O)c1C | inactive: 17.4%
10 | CC12CCC3C(CC=C4CC(O)CCC43CO)C1CCC2OC(=O)c1ccccc1 (stereo not drawn) | inconclusive: 78.3%
11 | CC(=O)O[C@H]1CC[C@]2(C=O)[C@H]3CC[C@]4(C)[C@@H](C5=CC(=O)OC5)CC[C@]4(O)[C@@H]3CC[C@]2(O)C1 | inconclusive: 114%
12 | CC(N)Cc1c[nH]c2ccc(OCc3cccs3)cc12 (stereo not drawn) | active: 98.5%
13 | N#Cc1c(Cl)cccc1Cl | inconclusive: 235%
14 | CC(=O)OC1CCC2(C)C(=CCC3C4CCC(=O)C4(C)CCC32)C1 (stereo not drawn) | inactive: 37.6%
15 | CC1(C)C(=O)C=C[C@@]2(C)C1C(=O)C(=O)[C@]1(C)C2CC[C@@]2(C)[C@H](c3ccoc3)C[C@H]3O[C@]321 (stereo partly drawn) | active: 179%
16 | COCc1cc(OC(=O)N(C)C)nc(-c2ccncc2)n1 | inactive: 9.52%
17 | O=C1NC(=O)N(c2ccccc2)C(=O)/C1=C/c1ccco1 | active: 83%
18 | C[C@@H]1O[C@@H](O[C@H]2[C@H](O)[C@@H](O)[C@H](O[C@@H]3C=C4CC[C@@H]5C(CC[C@]6(C)[C@@H](c7ccc(=O)oc7)CC[C@]56O)[C@@]4(C)CC3)O[C@@H]2CO)[C@H](O)[C@H](O)[C@H]1O (stereo partly drawn) | inactive: 60.6%

Reprinted at random: 2 entries already listed.
Row | Compound | ROS induction (% of piperlongumine)
6 | CCN1CC2(COC)CCC(O)C34C5CC6C(OC)CC(O)(C5C6O)C(C(OC)C23)C14 (stereo not drawn) | inconclusive: 126%
12 | CC(N)Cc1c[nH]c2ccc(OCc3cccs3)cc12 (stereo not drawn) | active: 98.5%
